Data: patent US10336790B2 (priority 2014, dated 2019)
At least one peptide structure holds a part that was inferred or is arguable (an end, a ring closure or a residue). Some entries repeat one wording, which the source may state once for all of them. For some assays here: At least one structure is not confirmed: it was looked up by name or label, or the drawing left a doubt. Some of these results come from one statement about several compounds together. Ends that are not written are not given here.

How the values were obtained:
[1] = test system: M. tuberculosis mc^2 6020; assay: Disk diffusion assay; assay type: cell-based; conditions: for inhibition compared with peptide B2: 100 μg peptide per disk
[2] = test system: lung epithelial A549 cell line; assay: Peptide cytotoxicity, Trypan Blue exclusion assay; assay type: cell-based, human; conditions: 34 μM peptide concentration, 24 hr
Description: (§1) Cytotoxicity studies were performed using three mammalian cell lines which included mouse macrophage J774.16 cell line, human lung epithelial A549 cell line, and sheep red blood cells (sRBCs) in Trypticase soy agar (TSA). Mouse macrophage J774.16 cell line (maintained in antibiotic-free Dulbecco's modified Eagle's medium containing 20% fetal bovine serum, 5% NCTC 109, 1% nonessential amino acids and 1% glutamine) or human lung epithelial A549 cell line (maintained in antibiotic-free Ham's F12 medium supplemented with 10% fetal bovine serum) was seeded at a density of approximately 1×10^5 cells per ml in Lab-tek Permanox eight-chamber microscopy slides (Nunc, Inc., Naperville, Ill.) and incubated for 3 (J774.16) or 5 (A549) days before use. After cell differentiation to a confluence of 70 to 80%, the culture media was replaced with fresh media containing the different AMPS at 64 μg/ml or at toxic dose (320 μg/ml) or controls (media only for negative control or 50 μM NaN3 for positive control). Similarly, AMPS or 1% Triton 100-X as positive control or media only (negative control) was each added to separate wells and allowed to be absorbed into agar at room temperature. All experiments were incubated for 24 hr at 37° C., 5% CO2. All experiments were done in duplicates. Cytotoxicity for J774.16 or A549 cells was monitored using Trypan Blue exclusion assay and the ratio of dead to viable cells was recorded. For sRBCs, the presence of cell lysis after 24 hr of incubation at 37° C. following treatment indicated cytotoxicity.

[3] = test system: macrophage J774.16 cells; assay: Peptide cytotoxicity, Trypan Blue exclusion assay; assay type: cell-based, mouse; conditions: 34 μM peptide concentration, 24 hr
Description: as §1

[4] = test system: M. smegmatis; assay: Disk diffusion assay; assay type: cell-based; conditions: for inhibition (clear zones around disks): 100 μg peptide or 10 μg kanamycin per 6 mm disk, three weeks at 37° C.; for inhibition compared with peptide B2: 100 μg peptide per disk
[5] = test system: M. tuberculosis MC26020
[6] = test system: Gram-negative bacteria; assay: Micro-broth dilution MIC determination; assay type: cell-based; conditions: in most cases

Molecule | inhibition (clear zones around disks) [1] | cytotoxicity [2] | cytotoxicity [3] | inhibition compared with peptide B2 [1] | inhibition (clear zones around disks) [4] | inhibition compared with peptide B2 [4] | MIC [5] | effectiveness (MIC) on a molar basis compared with positive control gentamycin [5] | improvement of efficacy over the scrambled peptide B4 [5] | potency compared with B3 [6]
NC[C@H]1O[C@H](O[C@H]2[C@H](O)[C@@H](O[C@H]3O[C@H](CO)[C@@H](O)[C@H](N)[C@H]3O)[C@H](N)C[C@@H]2N)[C@H](O)[C@@H](O)[C@@H]1O [Kanamycin, kanamycin, reference compound] | strong signal |  |  |  |  |  |  |  |  | 
ILSLRWRWKWWKK-NH2 [Peptide B1, ILSLRWRWKWWKK] | showed inhibition | no observable cytotoxicity | no observable cytotoxicity | better inhibition | showed inhibition | better inhibition |  |  |  | 
ILSLRWRWWKWKK-NH2 [Peptide B3, ILSLRWRWWKWKK] | showed inhibition | no observable cytotoxicity | no observable cytotoxicity | better inhibition | showed inhibition | better inhibition | 8 µg/mL | equally effective | an order of magnitude | 
ILSLRWWRKWWKK-NH2 [Peptide B2, ILSLRWWRKWWKK] | showed inhibition | no observable cytotoxicity | no observable cytotoxicity |  | showed inhibition |  |  |  |  | more potent
IRKLKSWKWLRWL-NH2 [Peptide B4, IRKLKSWKWLRWL] |  | no observable cytotoxicity | no observable cytotoxicity |  |  |  |  |  |  | 
